Compound in this assay: Nc1ncnc2c1ncn2[C@@H]1O[C@H](COP(=O)(O)OP(=O)(O)NP(=O)(O)O)[C@@H](O)[C@H]1O [adenylyl imidodiphosphate]
Put plainly: NP40-soluble protein abundance relative to vehicle (solubility fold change) (ratio); higher = more soluble protein in presence of AMP-PNP. A digest of the protocol: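 Values are fold changes against the detergent-processed vehicle, based on vsn-normalised intensities. Jurkat crude lysate was treated at eight concentrations from 0.1 to 10 mM (10 min at room temperature, then 3 min at 37 °C), solubilised with 0.8% NP40 and benzonase, ultracentrifuged and analysed by TMT-labelled LC-MS/MS over three independent experiments.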

Sequences of proteins named here, by UniProt entry; tags and fusion partners are left off. A change or cut given only in a name is not applied to a line headed by its entry.
UniProt Q13427: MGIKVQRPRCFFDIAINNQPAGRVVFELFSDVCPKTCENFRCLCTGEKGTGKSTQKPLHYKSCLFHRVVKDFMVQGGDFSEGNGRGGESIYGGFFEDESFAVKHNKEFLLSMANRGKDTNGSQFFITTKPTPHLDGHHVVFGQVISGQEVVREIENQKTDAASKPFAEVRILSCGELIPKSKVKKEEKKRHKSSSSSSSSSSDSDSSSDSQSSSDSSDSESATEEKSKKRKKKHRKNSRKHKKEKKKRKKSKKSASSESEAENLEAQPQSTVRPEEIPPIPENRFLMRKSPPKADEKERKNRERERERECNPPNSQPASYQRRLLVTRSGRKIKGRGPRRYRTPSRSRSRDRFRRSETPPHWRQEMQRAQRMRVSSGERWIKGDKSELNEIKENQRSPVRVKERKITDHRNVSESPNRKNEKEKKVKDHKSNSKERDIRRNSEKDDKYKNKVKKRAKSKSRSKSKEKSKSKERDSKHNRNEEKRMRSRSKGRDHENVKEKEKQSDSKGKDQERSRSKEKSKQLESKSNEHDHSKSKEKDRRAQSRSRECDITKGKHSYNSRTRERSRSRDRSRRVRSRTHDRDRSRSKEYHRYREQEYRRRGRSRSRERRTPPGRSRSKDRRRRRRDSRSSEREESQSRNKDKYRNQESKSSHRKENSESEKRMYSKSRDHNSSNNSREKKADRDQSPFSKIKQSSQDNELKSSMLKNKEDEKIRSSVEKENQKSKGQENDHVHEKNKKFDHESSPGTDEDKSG
UniProt Q14BN4: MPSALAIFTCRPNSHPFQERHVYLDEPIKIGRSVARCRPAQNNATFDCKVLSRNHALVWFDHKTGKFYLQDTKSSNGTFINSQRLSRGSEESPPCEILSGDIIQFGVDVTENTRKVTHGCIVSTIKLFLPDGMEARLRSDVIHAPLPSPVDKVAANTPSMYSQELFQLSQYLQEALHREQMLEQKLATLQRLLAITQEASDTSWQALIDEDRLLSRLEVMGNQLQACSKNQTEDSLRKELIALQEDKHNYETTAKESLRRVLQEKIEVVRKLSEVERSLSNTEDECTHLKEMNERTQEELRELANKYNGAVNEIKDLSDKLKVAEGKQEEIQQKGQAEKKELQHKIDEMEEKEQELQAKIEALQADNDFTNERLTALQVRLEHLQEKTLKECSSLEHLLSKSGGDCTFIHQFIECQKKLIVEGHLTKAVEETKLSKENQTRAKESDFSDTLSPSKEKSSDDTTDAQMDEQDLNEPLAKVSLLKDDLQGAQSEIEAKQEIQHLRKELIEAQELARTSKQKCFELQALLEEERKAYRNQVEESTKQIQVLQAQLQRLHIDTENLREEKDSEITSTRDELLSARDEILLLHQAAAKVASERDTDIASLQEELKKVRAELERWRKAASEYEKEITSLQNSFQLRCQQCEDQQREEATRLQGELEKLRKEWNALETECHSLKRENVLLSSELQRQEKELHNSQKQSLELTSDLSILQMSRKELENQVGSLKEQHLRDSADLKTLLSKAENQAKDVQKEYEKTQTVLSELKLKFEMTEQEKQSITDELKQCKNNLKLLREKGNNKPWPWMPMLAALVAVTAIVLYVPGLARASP
UniProt Q96MF7: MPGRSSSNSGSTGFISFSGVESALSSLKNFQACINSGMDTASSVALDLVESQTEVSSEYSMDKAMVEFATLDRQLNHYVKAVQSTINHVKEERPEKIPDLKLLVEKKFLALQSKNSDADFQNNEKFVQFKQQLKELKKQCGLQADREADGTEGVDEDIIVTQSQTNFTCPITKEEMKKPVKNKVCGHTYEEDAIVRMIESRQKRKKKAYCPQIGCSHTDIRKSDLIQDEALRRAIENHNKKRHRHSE
UniProt Q8NEB9, whole entry: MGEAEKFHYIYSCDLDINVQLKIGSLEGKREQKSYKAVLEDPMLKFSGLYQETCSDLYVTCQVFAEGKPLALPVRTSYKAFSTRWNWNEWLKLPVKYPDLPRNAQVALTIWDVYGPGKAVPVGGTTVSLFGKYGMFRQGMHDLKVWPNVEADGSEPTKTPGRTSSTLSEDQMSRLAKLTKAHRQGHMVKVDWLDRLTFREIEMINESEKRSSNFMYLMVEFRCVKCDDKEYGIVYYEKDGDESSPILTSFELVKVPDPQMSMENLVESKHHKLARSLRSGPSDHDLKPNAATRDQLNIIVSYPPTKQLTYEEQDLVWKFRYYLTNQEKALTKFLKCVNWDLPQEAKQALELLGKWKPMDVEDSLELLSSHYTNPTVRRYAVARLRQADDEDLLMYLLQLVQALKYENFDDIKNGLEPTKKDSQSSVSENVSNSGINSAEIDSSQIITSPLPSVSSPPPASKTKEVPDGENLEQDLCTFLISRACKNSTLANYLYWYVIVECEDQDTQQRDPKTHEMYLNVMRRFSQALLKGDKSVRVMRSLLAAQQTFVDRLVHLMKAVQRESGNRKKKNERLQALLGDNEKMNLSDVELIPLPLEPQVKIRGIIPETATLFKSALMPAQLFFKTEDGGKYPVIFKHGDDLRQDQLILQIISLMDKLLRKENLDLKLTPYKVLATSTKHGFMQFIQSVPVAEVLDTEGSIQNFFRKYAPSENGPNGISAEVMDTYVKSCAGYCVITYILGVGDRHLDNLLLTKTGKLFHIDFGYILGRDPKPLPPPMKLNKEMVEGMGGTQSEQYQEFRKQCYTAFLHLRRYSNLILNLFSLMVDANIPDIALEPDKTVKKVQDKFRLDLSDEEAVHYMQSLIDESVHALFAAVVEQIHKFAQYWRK
UniProt O15372, whole entry: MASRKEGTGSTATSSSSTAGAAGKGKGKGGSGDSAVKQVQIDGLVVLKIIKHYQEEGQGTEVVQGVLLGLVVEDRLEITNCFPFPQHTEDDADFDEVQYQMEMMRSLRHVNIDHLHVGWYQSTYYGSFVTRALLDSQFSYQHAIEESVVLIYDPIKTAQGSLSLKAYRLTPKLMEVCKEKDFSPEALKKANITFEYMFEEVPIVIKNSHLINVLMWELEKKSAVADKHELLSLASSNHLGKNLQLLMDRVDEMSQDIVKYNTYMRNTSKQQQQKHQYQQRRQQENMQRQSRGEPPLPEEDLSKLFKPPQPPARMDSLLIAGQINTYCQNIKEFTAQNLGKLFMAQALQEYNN
UniProt Q8WTS6: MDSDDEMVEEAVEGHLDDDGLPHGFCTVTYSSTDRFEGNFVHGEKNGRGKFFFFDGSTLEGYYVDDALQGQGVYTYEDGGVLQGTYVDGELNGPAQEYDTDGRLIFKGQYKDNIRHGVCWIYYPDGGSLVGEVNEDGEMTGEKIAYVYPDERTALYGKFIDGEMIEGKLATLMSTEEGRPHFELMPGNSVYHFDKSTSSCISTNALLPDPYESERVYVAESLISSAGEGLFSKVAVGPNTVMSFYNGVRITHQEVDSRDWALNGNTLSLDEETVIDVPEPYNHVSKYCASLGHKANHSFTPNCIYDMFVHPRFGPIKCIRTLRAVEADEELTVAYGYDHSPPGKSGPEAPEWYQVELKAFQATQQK
UniProt P41732: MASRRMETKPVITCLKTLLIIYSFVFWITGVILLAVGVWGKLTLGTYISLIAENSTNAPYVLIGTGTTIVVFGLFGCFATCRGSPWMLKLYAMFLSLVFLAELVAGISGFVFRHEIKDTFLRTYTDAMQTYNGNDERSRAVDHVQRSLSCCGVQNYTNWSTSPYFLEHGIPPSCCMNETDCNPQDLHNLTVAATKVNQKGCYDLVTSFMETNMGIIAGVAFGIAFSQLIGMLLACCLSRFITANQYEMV
UniProt Q8N3X6: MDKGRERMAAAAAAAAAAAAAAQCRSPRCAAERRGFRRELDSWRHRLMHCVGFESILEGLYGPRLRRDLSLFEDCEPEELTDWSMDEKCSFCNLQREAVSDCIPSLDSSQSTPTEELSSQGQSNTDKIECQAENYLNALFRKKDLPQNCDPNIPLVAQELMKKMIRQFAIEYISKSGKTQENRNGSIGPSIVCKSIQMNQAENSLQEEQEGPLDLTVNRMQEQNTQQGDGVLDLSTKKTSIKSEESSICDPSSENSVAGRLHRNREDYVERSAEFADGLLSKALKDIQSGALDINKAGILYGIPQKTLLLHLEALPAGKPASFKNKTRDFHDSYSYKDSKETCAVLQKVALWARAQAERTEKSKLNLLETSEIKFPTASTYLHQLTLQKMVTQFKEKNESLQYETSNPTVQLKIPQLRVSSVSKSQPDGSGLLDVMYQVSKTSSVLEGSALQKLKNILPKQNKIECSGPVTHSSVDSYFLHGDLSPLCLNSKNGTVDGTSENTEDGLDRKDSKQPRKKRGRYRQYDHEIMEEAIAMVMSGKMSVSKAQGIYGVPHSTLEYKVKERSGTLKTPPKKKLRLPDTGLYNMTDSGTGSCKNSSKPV
UniProt O14662: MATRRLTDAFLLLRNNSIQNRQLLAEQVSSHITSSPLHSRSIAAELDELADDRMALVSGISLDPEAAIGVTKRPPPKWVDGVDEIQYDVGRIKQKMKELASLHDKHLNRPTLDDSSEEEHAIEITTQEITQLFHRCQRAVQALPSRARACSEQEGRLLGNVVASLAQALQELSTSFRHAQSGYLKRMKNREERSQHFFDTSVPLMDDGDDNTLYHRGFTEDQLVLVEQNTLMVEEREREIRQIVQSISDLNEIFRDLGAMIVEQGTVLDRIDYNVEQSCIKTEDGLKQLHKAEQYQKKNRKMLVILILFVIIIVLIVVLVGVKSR
UniProt P49585: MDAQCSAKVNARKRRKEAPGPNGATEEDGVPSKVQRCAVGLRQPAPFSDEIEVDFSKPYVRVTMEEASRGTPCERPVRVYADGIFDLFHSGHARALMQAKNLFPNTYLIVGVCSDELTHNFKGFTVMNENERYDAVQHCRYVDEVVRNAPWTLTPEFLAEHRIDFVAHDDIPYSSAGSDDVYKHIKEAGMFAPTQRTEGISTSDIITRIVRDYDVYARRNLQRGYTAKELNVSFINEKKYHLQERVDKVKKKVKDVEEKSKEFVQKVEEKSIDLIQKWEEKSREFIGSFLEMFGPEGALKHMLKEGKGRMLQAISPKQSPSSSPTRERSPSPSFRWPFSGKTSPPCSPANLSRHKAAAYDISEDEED
UniProt A6NDG6: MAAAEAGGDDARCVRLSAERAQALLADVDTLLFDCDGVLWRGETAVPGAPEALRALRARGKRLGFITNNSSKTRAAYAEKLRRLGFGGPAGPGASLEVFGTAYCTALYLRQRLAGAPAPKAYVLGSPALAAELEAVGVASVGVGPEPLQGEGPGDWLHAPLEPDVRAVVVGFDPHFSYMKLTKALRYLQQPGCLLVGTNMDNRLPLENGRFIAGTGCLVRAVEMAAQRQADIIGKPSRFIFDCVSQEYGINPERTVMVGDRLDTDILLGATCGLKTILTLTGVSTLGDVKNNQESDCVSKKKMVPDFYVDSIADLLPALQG
UniProt O14730: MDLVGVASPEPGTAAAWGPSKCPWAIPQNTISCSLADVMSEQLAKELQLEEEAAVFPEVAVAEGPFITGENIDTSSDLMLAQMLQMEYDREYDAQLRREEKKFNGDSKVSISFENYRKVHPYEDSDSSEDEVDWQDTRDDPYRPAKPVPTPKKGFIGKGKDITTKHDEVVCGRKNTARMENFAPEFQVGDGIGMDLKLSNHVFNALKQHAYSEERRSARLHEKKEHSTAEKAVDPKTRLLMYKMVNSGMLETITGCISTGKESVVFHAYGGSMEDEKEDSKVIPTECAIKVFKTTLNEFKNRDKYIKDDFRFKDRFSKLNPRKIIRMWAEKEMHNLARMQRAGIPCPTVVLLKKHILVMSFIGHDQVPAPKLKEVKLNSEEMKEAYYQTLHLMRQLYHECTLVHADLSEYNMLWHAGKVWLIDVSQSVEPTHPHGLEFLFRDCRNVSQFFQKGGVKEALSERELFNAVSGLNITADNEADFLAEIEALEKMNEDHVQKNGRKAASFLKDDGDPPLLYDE
UniProt Q16891: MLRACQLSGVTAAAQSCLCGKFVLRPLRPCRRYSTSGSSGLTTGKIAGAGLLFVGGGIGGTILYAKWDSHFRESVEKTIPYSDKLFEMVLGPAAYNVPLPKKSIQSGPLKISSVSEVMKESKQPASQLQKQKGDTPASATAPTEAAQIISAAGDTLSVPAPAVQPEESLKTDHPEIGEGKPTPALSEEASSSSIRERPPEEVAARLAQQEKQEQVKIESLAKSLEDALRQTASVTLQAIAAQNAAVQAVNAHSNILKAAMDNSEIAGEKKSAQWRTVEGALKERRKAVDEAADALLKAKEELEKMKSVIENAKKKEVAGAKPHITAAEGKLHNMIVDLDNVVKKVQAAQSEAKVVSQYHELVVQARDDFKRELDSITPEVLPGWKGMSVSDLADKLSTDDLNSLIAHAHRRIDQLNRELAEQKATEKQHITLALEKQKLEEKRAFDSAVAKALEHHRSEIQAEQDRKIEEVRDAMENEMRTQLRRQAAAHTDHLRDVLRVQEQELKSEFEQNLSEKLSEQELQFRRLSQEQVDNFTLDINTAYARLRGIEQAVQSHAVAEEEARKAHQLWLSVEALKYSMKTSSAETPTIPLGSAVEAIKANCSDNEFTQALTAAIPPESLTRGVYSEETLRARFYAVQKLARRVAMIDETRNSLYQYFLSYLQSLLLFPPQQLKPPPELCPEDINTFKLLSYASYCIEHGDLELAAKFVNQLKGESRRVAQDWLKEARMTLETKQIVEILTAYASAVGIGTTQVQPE

± gives the standard deviation of the averaged measurements. This is a selection; strong and weak results do not stand in their true shares. Small differences around the control level are noise.

Data on 16 targets can be found in the supplement of paper PMC6411743.

With “C9JM79 and related entries (UniProt Q13427)”, the NP40-soluble protein abundance is, setting by setting: (concentration: 0.1mM) 1.02 ± 0.022; (concentration: 0.5mM) 1.02 ± 0.026.

For “B7Z863 and related entries (UniProt Q14BN4)”, the NP40-soluble protein abundance reads like this: (concentration: 0.1mM) 0.988 ± 0.019; (concentration: 0.5mM) 0.989 ± 0.057.

For “E5RFJ1 and related entries (UniProt Q96MF7)”, the NP40-soluble protein abundance (concentration: 0.1mM) came to 1.01 ± 0.026 and the NP40-soluble protein abundance (concentration: 0.5mM) came out at 0.979 ± 0.028.

Take “D6RAN4 and related entries (UniProt P32969)”: the NP40-soluble protein abundance was found to be 1.04 ± 0.032 (concentration: 0.1mM) and 1.02 ± 0.038 (concentration: 0.5mM).

As for “B0YIW6 and related entries (UniProt P48444)”, the NP40-soluble protein abundance (concentration: 0.1mM) worked out at 1.013 ± 0.0037 and the NP40-soluble protein abundance (concentration: 0.5mM) stood at 0.999 ± 0.029.

For the target “A8MYT4 and related entries (UniProt Q8NEB9)”, the NP40-soluble protein abundance worked out at 1.023 ± 0.0064 (concentration: 0.1mM) and 0.998 ± 0.039 (concentration: 0.5mM).

Consider “C9J2Y9 and related entries (UniProt P30876)”, for which the NP40-soluble protein abundance worked out at 1.04 ± 0.034 (concentration: 0.1mM) and 0.993 ± 0.077 (concentration: 0.5mM).

As for “B3KS98 and related entries (UniProt O15372)”, the NP40-soluble protein abundance by setting is: (concentration: 0.1mM) 1.01 ± 0.022; (concentration: 0.5mM) 1.04 ± 0.025.

On to “B5MCS2 and related entries (UniProt Q8WTS6)”, for which the NP40-soluble protein abundance runs as follows: (concentration: 0.1mM) 0.949 ± 0.07; (concentration: 0.5mM) 0.898 ± 0.052.

For “B4DDG0 and related entries (UniProt P41732+B4E171+B4DDG0)”, the NP40-soluble protein abundance was found to be 0.938 ± 0.021 (concentration: 0.1mM) and 0.967 ± 0.014 (concentration: 0.5mM).

Consider “C9JI46 and related entries (UniProt Q8N3X6)”, for which the NP40-soluble protein abundance (concentration: 0.1mM) is 0.976 ± 0.053 and the NP40-soluble protein abundance (concentration: 0.5mM) amounted to 0.967 ± 0.049.

“B7ZBM8 and related entries (UniProt O14662)”: the NP40-soluble protein abundance is, setting by setting: (concentration: 0.1mM) 0.968 ± 0.038; (concentration: 0.5mM) 0.998 ± 0.028.

For the target “C9JEJ2 and related entries (UniProt P49585)”, the NP40-soluble protein abundance is, setting by setting: (concentration: 0.1mM) 1.02 ± 0.018; (concentration: 0.5mM) 0.992 ± 0.028.

Consider PGP (UniProt A6NDG6), for which the NP40-soluble protein abundance is, setting by setting: (concentration: 0.1mM) 1.02 ± 0.023; (concentration: 0.5mM) 0.982 ± 0.033.

With “B4E1Q4 and related entries (UniProt O14730)”, the NP40-soluble protein abundance turned out to be 0.986 ± 0.038 (concentration: 0.1mM) and 1.01 ± 0.023 (concentration: 0.5mM).

Turning to “C9J406 and related entries (UniProt Q16891)”, the NP40-soluble protein abundance (concentration: 0.1mM) stood at 0.985 ± 0.053 and the NP40-soluble protein abundance (concentration: 0.5mM) amounted to 1 ± 0.055.
